According to PMC5976236:
No constants are given. Whether binding was seen depends on the method and setting. Some results given as binding are weak or reduced against the parent protein; the word gives no strength.

Protein sequences, listed by entry. Tags and fused reporters are not part of them. Residues count along the entry.
UniProt Q80Z19, residues 21-4576: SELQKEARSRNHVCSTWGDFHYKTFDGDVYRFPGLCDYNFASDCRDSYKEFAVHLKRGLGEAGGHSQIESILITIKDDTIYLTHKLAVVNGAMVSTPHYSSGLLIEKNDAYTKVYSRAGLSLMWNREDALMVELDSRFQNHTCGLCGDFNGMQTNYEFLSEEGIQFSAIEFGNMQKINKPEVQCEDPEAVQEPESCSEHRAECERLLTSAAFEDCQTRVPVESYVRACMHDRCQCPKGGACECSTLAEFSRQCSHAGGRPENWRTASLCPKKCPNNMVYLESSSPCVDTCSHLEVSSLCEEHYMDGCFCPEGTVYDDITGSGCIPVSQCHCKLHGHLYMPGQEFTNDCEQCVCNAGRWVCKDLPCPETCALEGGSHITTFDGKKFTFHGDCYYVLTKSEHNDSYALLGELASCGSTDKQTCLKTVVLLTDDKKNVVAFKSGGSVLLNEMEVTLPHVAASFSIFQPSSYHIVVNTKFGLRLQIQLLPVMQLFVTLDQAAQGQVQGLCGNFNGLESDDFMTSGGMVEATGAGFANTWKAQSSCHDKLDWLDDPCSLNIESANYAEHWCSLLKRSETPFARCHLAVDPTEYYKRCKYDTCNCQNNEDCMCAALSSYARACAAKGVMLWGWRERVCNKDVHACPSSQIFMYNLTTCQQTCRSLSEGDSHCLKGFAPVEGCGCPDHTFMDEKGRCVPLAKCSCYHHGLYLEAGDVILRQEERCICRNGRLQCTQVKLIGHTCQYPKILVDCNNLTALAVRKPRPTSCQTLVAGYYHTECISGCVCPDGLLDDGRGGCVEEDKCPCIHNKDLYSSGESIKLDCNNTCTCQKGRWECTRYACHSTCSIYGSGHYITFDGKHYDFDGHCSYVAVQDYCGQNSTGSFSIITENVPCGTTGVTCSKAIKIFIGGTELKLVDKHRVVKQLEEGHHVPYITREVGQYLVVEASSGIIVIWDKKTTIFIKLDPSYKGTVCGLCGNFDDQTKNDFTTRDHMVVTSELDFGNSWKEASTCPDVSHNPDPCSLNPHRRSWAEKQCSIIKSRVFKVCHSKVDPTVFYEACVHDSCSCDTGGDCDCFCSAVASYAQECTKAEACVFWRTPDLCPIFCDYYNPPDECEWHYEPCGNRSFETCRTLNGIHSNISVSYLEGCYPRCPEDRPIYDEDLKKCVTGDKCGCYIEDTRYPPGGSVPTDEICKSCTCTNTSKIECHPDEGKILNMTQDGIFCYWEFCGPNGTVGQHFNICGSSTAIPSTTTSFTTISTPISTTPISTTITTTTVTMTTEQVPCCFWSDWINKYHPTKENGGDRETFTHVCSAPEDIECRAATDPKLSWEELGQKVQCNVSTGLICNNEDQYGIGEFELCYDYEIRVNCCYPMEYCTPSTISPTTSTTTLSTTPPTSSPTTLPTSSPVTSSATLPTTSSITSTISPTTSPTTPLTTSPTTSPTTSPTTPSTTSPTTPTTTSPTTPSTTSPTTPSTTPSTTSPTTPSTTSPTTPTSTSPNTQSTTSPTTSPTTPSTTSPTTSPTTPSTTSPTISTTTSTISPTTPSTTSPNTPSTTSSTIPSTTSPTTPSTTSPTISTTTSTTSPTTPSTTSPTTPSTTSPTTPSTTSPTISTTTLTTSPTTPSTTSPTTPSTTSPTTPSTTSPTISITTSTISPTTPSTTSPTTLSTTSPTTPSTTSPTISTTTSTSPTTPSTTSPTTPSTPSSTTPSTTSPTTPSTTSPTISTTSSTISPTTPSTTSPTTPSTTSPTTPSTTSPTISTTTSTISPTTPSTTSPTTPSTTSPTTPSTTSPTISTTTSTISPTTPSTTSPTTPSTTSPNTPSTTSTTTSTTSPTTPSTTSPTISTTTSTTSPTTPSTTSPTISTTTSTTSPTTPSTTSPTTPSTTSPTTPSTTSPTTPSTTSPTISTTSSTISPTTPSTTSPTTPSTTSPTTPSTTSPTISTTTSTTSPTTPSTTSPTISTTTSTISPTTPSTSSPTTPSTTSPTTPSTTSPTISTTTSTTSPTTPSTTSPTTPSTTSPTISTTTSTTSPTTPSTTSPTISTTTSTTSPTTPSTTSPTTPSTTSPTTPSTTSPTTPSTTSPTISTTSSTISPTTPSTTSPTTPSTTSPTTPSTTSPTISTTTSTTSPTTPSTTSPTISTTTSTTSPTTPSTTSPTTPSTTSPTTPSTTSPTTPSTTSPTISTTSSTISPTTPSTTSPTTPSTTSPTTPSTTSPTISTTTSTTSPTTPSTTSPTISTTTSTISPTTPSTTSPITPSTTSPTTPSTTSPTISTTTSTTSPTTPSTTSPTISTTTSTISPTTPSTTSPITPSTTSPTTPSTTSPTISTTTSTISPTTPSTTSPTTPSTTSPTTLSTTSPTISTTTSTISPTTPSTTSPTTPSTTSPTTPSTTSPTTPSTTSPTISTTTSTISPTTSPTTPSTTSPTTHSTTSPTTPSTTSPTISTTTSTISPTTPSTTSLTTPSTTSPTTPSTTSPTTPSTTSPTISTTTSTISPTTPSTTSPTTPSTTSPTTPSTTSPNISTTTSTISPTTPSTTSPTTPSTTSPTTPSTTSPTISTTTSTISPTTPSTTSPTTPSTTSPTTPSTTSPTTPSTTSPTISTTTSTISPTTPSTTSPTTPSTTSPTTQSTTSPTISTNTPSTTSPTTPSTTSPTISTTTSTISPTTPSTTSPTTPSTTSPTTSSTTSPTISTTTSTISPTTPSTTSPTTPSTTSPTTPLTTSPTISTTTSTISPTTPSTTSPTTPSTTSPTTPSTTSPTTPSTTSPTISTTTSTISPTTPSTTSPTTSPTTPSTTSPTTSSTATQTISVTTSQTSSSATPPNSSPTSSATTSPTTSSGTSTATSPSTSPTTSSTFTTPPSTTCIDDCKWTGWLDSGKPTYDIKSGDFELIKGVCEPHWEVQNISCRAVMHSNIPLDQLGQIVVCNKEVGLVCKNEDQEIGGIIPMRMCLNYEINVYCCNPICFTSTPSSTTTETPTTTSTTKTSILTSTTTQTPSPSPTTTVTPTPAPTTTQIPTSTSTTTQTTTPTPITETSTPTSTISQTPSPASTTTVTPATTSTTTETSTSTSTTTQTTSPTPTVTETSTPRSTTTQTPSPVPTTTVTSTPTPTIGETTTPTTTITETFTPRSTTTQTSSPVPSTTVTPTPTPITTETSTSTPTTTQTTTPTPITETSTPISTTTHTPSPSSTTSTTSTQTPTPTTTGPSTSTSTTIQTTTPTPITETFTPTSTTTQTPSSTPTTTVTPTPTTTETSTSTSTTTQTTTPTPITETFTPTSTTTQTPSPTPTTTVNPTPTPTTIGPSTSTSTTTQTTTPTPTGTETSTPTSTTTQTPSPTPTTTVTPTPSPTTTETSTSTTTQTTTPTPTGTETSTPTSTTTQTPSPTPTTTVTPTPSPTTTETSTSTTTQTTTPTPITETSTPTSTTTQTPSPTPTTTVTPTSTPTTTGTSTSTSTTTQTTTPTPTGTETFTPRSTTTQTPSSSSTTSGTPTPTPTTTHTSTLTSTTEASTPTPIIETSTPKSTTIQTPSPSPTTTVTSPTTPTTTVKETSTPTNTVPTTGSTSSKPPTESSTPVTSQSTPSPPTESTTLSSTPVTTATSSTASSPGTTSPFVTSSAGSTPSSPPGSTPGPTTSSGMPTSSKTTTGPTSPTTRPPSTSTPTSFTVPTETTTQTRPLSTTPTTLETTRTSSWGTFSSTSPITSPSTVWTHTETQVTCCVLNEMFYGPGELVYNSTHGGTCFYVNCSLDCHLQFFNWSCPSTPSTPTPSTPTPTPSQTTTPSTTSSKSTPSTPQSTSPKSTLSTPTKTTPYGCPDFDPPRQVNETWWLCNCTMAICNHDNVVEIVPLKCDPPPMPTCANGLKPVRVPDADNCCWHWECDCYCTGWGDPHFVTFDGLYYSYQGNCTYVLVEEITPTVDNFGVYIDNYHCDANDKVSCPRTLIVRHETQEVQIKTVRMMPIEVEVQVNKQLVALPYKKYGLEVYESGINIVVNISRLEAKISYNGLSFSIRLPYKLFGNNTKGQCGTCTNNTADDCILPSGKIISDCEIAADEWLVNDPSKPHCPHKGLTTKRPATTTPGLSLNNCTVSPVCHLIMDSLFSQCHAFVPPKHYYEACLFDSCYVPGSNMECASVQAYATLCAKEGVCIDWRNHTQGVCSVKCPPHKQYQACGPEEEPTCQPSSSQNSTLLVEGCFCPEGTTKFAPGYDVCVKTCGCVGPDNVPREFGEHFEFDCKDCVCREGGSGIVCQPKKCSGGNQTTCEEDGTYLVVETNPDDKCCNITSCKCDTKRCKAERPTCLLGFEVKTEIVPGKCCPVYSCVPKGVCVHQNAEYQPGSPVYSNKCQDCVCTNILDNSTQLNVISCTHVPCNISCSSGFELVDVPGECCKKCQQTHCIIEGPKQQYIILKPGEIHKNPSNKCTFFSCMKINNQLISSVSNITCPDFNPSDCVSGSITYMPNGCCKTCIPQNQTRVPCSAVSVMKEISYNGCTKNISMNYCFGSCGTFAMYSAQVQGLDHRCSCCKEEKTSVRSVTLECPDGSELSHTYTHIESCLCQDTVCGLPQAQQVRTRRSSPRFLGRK
UniProt P17931: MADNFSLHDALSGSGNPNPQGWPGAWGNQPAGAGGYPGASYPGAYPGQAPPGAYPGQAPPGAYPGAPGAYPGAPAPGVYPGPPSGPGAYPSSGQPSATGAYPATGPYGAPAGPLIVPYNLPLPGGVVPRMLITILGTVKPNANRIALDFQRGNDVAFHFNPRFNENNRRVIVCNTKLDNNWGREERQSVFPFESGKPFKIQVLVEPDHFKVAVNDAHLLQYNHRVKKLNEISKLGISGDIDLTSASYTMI

What was measured:
[1] = target: Muc2 from small intestine of wild-type C57BL/6 mice (mouse (endogenous in C57BL/6 small intestine)) (UniProt Q80Z19); experiment: ELISA; mucins adsorbed on a 96-well plate (10 μg/ml in PBS); Gal-3 at 0, 1.25, 2.5, 5, 10 and 20 μg/ml, 2 h at 37°C; detected with anti-Gal-3 and HRP conjugate; both purified
[2] = target: MUC2 from LS174T cells, desialylated and chemically deglycosylated (human (endogenous in LS174T)) (UniProt Q02817); experiment: ELISA; mucins coated at 10 μg/ml (100 μl/well), desialylated and deglycosylated in cycles directly in the microplate; Gal-3 incubated 2 h at 37°C, colorimetric reaction; both purified

“recombinant human galectin-3 (from UniProt P17931 1-250)” was tested, and the binding [1] was “binds” and the binding [2] was “binds”.
